# Library screen at single concentrations

The chains behind the UniProt entries cited, without tags or fusion partners.
UniProt P9WPC5, whole entry: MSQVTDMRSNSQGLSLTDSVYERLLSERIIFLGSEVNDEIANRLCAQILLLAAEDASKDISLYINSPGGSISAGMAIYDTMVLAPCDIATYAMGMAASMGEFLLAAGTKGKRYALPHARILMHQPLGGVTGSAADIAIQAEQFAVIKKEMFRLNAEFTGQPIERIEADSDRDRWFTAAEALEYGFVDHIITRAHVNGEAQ
UniProt P9WPC3, whole entry partner: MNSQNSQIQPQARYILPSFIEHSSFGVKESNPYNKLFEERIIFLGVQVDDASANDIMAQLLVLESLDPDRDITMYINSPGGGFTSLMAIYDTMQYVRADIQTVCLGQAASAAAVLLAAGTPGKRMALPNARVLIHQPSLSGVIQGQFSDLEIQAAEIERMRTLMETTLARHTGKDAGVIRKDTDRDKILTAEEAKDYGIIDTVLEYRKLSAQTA
UniProt P9WNZ1, whole entry: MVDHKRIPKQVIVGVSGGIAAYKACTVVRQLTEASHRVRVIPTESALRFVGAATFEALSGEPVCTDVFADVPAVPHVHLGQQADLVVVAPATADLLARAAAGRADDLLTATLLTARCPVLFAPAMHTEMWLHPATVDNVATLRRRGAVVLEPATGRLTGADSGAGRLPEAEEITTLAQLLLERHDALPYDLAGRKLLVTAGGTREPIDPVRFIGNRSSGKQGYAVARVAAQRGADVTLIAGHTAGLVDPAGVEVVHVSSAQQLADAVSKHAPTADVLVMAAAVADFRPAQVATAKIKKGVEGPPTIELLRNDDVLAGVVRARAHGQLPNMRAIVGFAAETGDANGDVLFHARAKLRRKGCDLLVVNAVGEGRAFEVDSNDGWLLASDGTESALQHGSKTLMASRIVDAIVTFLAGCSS

Data taken from ChEMBL document CHEMBL3988442, “University of Dundee, Small-Polar-MMV Screening Library” (2021).

Each number is a percent effect as filed.
How 0% and 100% were set is not recorded. Most values in the screen are low, and negative values occur.
Compounds were drawn at random from those tested, without regard to their results.
A dash means the value is not listed here; it may have been measured.

ClpP1P2: 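Protease assay of ClpP1P2, read by the AMC dye that it sets free. Target: ClpP1P2, Mycobacterium tuberculosis (UniProt P9WPC5 and UniProt P9WPC3). Tested at 50 µM. Higher reads as stronger inhibition, judged from the few compounds that gave an IC50. Most other retested compounds had strongly negative values. Size under these conditions: about 69,000 compounds, about 10 of them at 50% or above in at least one test.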
CoaBC: 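Coenzyme A biosynthesis protein CoaBC, Mycobacterium tuberculosis (UniProt P9WNZ1). Enzyme assay of CoaBC with a phosphate dye (Biomol Green) read at 650 nm. Compounds at 30 µM. Direction is inferred from only a few compounds that gave an IC50; most scored high, so higher reads as stronger inhibition. Most strong results did not repeat in a second test. Of about 67,000 compounds tested this way, about 40 (0.06%) reached 50% or more in at least one test.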

structure | ClpP1P2 | CoaBC
Cc1nn(CC(C)C)c(C)c1CC(=O)N1CCCC(CNS(C)(=O)=O)C1 (centres undefined) | -10.3 | 1.574
Cc1nc(COC[C@H]2CCC[C@]23CN(CC2CC2)CCO3)cs1 | 11.06 | 7.099
CC(CNC(=O)c1cc(C2CC2)on1)N1CCc2ccccc21 (centres undefined) | -20.41 | -16.62
O=C(CCN1CCCCO1)NC1CCCN(CC2CCCCC2)C1 (centres undefined) | -6.004 | 11.9
Cc1cnn(CC2CCCCN2C(=O)c2ccc(N(C)C)nc2)c1 (centres undefined) | -25.58 | 2.611
Cc1cc(C2CCCN(C(=O)c3cnn(C)c3)C2)ccn1 (centres undefined) | -1.116 | -3.889
O=C1CC(C(=O)Nc2nnc(-c3ccccn3)[nH]2)c2ccccc2N1 (centres undefined) | -2.231 | 0.6479
CC(O)C1CCN(C(=O)Nc2nc(-c3ccccc3)ns2)CC1 (centres undefined) | -7.268 | 0.9346
Cc1ncsc1CCN(C)C(=O)CCc1nc2cccnc2n1C | 6.644 | 2.187
CCOc1ccc(NC2CCN(CC(F)(F)F)C2=O)cc1C (centres undefined) | -16.76 | -0.7426
CC(Cn1ccnc1)NC(=O)C1(c2cccc(Cl)c2)CC1 (centres undefined) | -8.863 | 5.612
CNCC(=O)Nc1cccc(-c2cnc(NCCO)nc2)c1 | 2.24 | 0.1205
CC(NC(=O)c1cccs1)C(=O)NS(=O)(=O)c1cccc(C#N)c1 (centres undefined) | -9.115 | 1.471
COc1ccc(CC(C)(O)CNC(=O)c2cccs2)cc1 (centres undefined) | 3.444 | 13.45
N#CCSCCCN1CCN(C(=O)c2ccccc2F)CC1 | -9.116 | 7.593
Cc1ccc(-c2noc(CN3CCn4c(nnc4C4CC4)C3)n2)cc1 | -20.2 | 2.632
Cc1cc(C(=O)N2CCCC(c3noc(C)n3)C2)[nH]n1 (centres undefined) | -3.699 | -4.627
COCCC(=O)N1CCCC1c1nc(C)c2c(n1)N(C)C(=O)CC2 (centres undefined) | -4.826 | 0
OCCn1nccc1C1CCN(CCOc2ccc(Cl)cc2)CC1 | -7.499 | 2.738
Cn1ccc(C(=O)NCc2ccccc2CN2CCCC2)cc1=O | -9.433 | -1.195
CS(=O)(=O)N1CCn2c(C(=O)N3CCOCC3)cnc2C1 | 0.9349 | -
COc1cc(CNc2nc(C3CC3)no2)cc(OC)c1OC | 12.85 | -4.925
Cc1ccc(CNCC2Cn3nnc(-c4cnn(C)c4)c3CO2)o1 (centres undefined) | 3.454 | 1.911
CCN(CC)C(=O)C(c1ccccc1)N1CCn2c(C)nnc2C1 (centres undefined) | 12.36 | -1.813
CCN(CC)CC1CN(Cc2ccc(C)s2)Cc2nccn2C1 (centres undefined) | -5.583 | -21.41
Cc1nc(C2CCCN(c3ncc(Br)cn3)C2)no1 (centres undefined) | -9.853 | 4.176
O=C(Cc1ccccc1)N1CCC2(CC1)COCCN2CC1CC1 | 0.8139 | -0.6085
Cc1ccc(CNCC2CCN(CCO)CC2)cc1 | 7.173 | 0.978
CCn1ncc(CN2CCCC(C(=O)c3ccc(Cl)cc3)C2)c1C (centres undefined) | -26.18 | -0.6211
CC(C)(C)c1ncc(C(=O)NCCS(N)(=O)=O)s1 | 1.244 | -18.53
CS(=O)(=O)N1CCC2(CCCN(Cc3ccccn3)C2)C1 (centres undefined) | 3.803 | -11.68
O=C(NCC(O)COc1ccc(F)cc1)C1(c2ccc(F)cc2)CC1 (centres undefined) | -2.008 | 0.2439
Cc1noc(C)c1CN1CCCCC1c1nc(-c2ccccc2)no1 (centres undefined) | 0.1314 | -6.8
O=C(Nc1ccccc1)c1nn(C2CCS(=O)(=O)C2)c2c1CCCC2 (centres undefined) | -4.987 | 1.754
CCCN1C[C@H]2CC[C@@H]1CN(Cc1ccc(Cn3cccn3)cc1)C2 | -0.4532 | -
O=C(N1CCCC(n2cncn2)C1)C1(c2ccccc2F)CCCC1 (centres undefined) | -24.54 | 4.725
CN(Cc1ccccc1)C(=O)[C@@H]1Cc2[nH]cnc2CN1C | 5.999 | -4.74
CN(Cc1cccc(O)c1)C(=O)Nc1cccnc1N1CCCC1 | 1.478 | 3.52
COCCNC(=O)[C@H]1CO[C@H]2CCN(Cc3cccs3)C[C@H]2C1 | -8.956 | -0.2469
CN(C)[C@@H]1CCN(C(=O)NC2CCCC2)[C@H]1Cc1cnn(C)c1 | 4.129 | -6.218
CC(NC(=O)Cc1ccccc1F)(C(N)=O)c1cccc(Cl)c1 (centres undefined) | -0.6958 | 0
COCCc1ncc(CN2C[C@@H](C(=O)O)[C@H](C(C)C)C2)cn1 | 12.92 | -1.222
Cc1nc2c(c(C)c1CC(=O)Nc1ccccc1F)c(=O)[nH]n2C | -9.14 | 1.623
CCNC(=O)NC(=O)CN(CC(C)O)c1ccccc1 (centres undefined) | -9.145 | 3.672
CN(C)CCn1ccnc1C1CCCN(c2cc(N)ncn2)C1 (centres undefined) | -1.633 | 1.015
Cc1ccc(CNC2CCCc3c2cnn3C)s1 (centres undefined) | 14.99 | 6.154
Cc1nc(N)ccc1CC1COc2ccccc2C1 (centres undefined) | 21.53 | 12.23
O=C(C[C@@H]1COC[C@H]2CN(C(=O)c3cccnc3)C[C@@H]12)N1CCOCC1 | 12.32 | 6.947
CN(c1ccccc1C(=O)O)S(=O)(=O)c1cccc2cccnc12 | -7.902 | -0.8147
O=C(NCc1nnc2ccccn12)N1CCOC(c2ccsc2)C1 (centres undefined) | -1.632 | -3.465
CC(C)c1noc(CCC(=O)N2CCSCC2)n1 | -4.701 | -0.6361

Once more, the final 6:

{"structure": "Cc1ccc(CNC2CCCc3c2cnn3C)s1", "stereo": "centres undefined", "ClpP1P2": 14.99, "CoaBC": 6.154}
{"structure": "Cc1nc(N)ccc1CC1COc2ccccc2C1", "stereo": "centres undefined", "ClpP1P2": 21.53, "CoaBC": 12.23}
{"structure": "O=C(C[C@@H]1COC[C@H]2CN(C(=O)c3cccnc3)C[C@@H]12)N1CCOCC1", "ClpP1P2": 12.32, "CoaBC": 6.947}
{"structure": "CN(c1ccccc1C(=O)O)S(=O)(=O)c1cccc2cccnc12", "ClpP1P2": -7.902, "CoaBC": -0.8147}
{"structure": "O=C(NCc1nnc2ccccn12)N1CCOC(c2ccsc2)C1", "stereo": "centres undefined", "ClpP1P2": -1.632, "CoaBC": -3.465}
{"structure": "CC(C)c1noc(CCC(=O)N2CCSCC2)n1", "ClpP1P2": -4.701, "CoaBC": -0.6361}